This is an account of results in paper PMC7819943, “Rice protein-binding microarrays: a tool to detect cis-acting elements near promoter regions in rice”.

The chains behind the UniProt entries cited, without tags or fusion partners.
UniProt Q0JBA9, entry or part of it: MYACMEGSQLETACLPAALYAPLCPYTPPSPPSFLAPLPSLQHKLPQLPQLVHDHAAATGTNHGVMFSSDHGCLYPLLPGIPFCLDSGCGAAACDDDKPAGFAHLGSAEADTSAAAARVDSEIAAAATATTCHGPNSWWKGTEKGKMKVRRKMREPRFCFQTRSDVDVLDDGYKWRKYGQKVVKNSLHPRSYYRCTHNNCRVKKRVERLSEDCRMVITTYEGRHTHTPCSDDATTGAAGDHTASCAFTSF

The other results are listed elsewhere or left out.

For the experiment, the target named is OsWRKY34 (Oryza sativa, UniProt Q0JBA9 1-250). The experiment can be described thus: protein-binding microarray (RPBM); PBS, 2% BSA, 51.3 ng/ul salmon testes DNA, 50 uM zinc acetate, 200 nM TF, 25 C, 1 h; high values mean tight binding. The note with it: protein: recombinant; tags: N-terminal polyhistidine and DsRed monomer fusion (pET32a); label: CyDye5-dUTP incorporated in the synthesized complementary strand; 3' TTTTT single-stranded linker to array surface; dsDNA, one strand shown. Put shortly:
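Transcription factors, each fused N-terminally to a polyhistidine tag and DsRed, were expressed in E. coli BL21-CodonPlus and purified on Ni–NTA. A custom Agilent array was made double-stranded by primer extension with Cy5-dUTP and blocked with 2% BSA. It was incubated with 200 nM protein in PBS, 2% BSA, salmon testes DNA and 50 µM zinc acetate at 25 °C for 1 h, then washed. The binding signal is per-feature fluorescence intensity (arbitrary units) read on an Axon 4000B scanner.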
Take “GCTTGTACTATCACGTTTTGGTTTGATCTTGTAGCCCACACGGAGTCACCTAGTGCAG”: the binding signal is 9700 fluorescence intensity (a.u.).

As to “CGAAAATTCCCTGAATATTTGATCTTTCTGTTGACCAATTCGGAGTCACCTAGTGCAG”, the binding signal is 8910 fluorescence intensity (a.u.).

As for “TCGCGATTTTCATGCAAACTGTACAATTAGTTTTTTCTTTCGGAGTCACCTAGTGCAG”, the binding signal was 9710 fluorescence intensity (a.u.).

As for “TCTTATATGATCAACTGTGATGCCACCCAATTATCCGCAGCGGAGTCACCTAGTGCAG”, the binding signal was 8040 fluorescence intensity (a.u.).

With “ACACCAACCACGCCCAATATTTGCAGATAGCCCACTGGTTCGGAGTCACCTAGTGCAG”, the binding signal is 8570 fluorescence intensity (a.u.).

Turning to “GTTGGATAACTGCAGTGTAGTGAACTCCCTGGTGTTTTTTCGGAGTCACCTAGTGCAG”, the binding signal was 9820 fluorescence intensity (a.u.).

“ACCACCGGTCACCACCACACGCTCCCTCGTCGACATCTATCGGAGTCACCTAGTGCAG”: the binding signal was 8300 fluorescence intensity (a.u.).

As for “GCCCACCATTTCCCCAAACATTTCCACACATTCCTACAATCGGAGTCACCTAGTGCAG”, the binding signal is 13600 fluorescence intensity (a.u.).

Consider “AAAGTTTATATTCCTATGTTTGATTCGTATTCTCGTGACCCGGAGTCACCTAGTGCAG”, for which the binding signal is 8950 fluorescence intensity (a.u.).

Turning to “AGAATTTTGGTTAATATCGTATTATGTCTTATATGAATTACGGAGTCACCTAGTGCAG”, the binding signal was 8570 fluorescence intensity (a.u.).

For “TGCTATTTACTACAATAACCATGGCTACTGCTATTAGGACCGGAGTCACCTAGTGCAG”, the binding signal was 8300 fluorescence intensity (a.u.).

Consider “CAAGCGGGTCCCATATCTTTTTTATTTGTTTTGCTGACTACGGAGTCACCTAGTGCAG”, for which the binding signal is 9510 fluorescence intensity (a.u.).

Turning to “GGCCGAGGCCGCGCAGGACGGCGCCCTTGGACAGCAACGCCGGAGTCACCTAGTGCAG”, the binding signal is 9480 fluorescence intensity (a.u.).

For “TATAATACTTGACGTGTGCACTTAATTAACTCTTTTTGGCCGGAGTCACCTAGTGCAG”, the binding signal is 8270 fluorescence intensity (a.u.).

Take “TCTCTTGTGTGGTTAATATCTATATCTATCCTGGTGTAGTCGGAGTCACCTAGTGCAG”: the binding signal is 8290 fluorescence intensity (a.u.).

As to “ACTTTGACCTGTTGTATCTCGCTAAGTCATCTCGTGGGGCCGGAGTCACCTAGTGCAG”, the binding signal was 10900 fluorescence intensity (a.u.).

“GTGCTCTGCCTGACGAACTTTTGCACCATGTCATGACATTCGGAGTCACCTAGTGCAG”: the binding signal is 9840 fluorescence intensity (a.u.).

As to “TAGCCTCATGTAAGTGCGCATCATATTTGTATTATTTTTCCGGAGTCACCTAGTGCAG”, the binding signal was 8530 fluorescence intensity (a.u.).

With “CTTTGGTTTTATCTTCACTCCAGTCAATGACACCTCTACCCGGAGTCACCTAGTGCAG”, the binding signal is 12500 fluorescence intensity (a.u.).

“TTTTTTTCGCATCCGCTTTTTTCCGCCGTAACAGATGGACCGGAGTCACCTAGTGCAG”: the binding signal is 12900 fluorescence intensity (a.u.).

Regarding “TCGACGGCATCATGGAGTGCGCCGCTTTCTCGTCCTCTACCGGAGTCACCTAGTGCAG”, the binding signal was 8950 fluorescence intensity (a.u.).

Take “GGACCTCAACCTTTCCTGACCTATCCTCTTTTCCCACTCACGGAGTCACCTAGTGCAG”: the binding signal is 10800 fluorescence intensity (a.u.).

Take “TAGCTTTCGTTGAGTTGACTTATTATTAGTCATTCCAATTCGGAGTCACCTAGTGCAG”: the binding signal is 12700 fluorescence intensity (a.u.).

As for “GTAGTTTTGACTTTTTTTTAAGTCAAACTTCTTCAGATTTCGGAGTCACCTAGTGCAG”, the binding signal was 10700 fluorescence intensity (a.u.).

Consider “TTTGGTTGCTTGCCTTCTTTATCGGCAAAATTTGCTATAGCGGAGTCACCTAGTGCAG”, for which the binding signal was 8970 fluorescence intensity (a.u.).

Consider “ACTCCGCTCAGCTCTAGCTTCCCCACCACCACCACCACCCCGGAGTCACCTAGTGCAG”, for which the binding signal is 10700 fluorescence intensity (a.u.).

In the case of “CCATTGTGTCATTCAGTTATTGTTACTTTCAGTTGTTCTACGGAGTCACCTAGTGCAG”, the binding signal was 12200 fluorescence intensity (a.u.).

Turning to “CGGTATTGGATTGATCAATCATCGTCACCTCGTTTTGCTTCGGAGTCACCTAGTGCAG”, the binding signal was 8680 fluorescence intensity (a.u.).

As for “CACACTATATTCCTGGTCCATTTTTCGACGAAAATCTACACGGAGTCACCTAGTGCAG”, the binding signal is 9140 fluorescence intensity (a.u.).

For the sequence “TTTTAGTCTTAATTATAGCTTTTCTTTTTACTTGCATATACGGAGTCACCTAGTGCAG”, the binding signal was 9120 fluorescence intensity (a.u.).

Turning to “CGTTTTCATCACTGGATGCGTGTCTACATCCACGGTTTTTCGGAGTCACCTAGTGCAG”, the binding signal is 13100 fluorescence intensity (a.u.).

Take “CGCCGAGCATCTTCGACGTCGTCTCCTCCATCACGCCGATCGGAGTCACCTAGTGCAG”: the binding signal is 8240 fluorescence intensity (a.u.).

For “GCCAAGCCACCCACCCACGCCCCGACGCCATTAATTTCCCCGGAGTCACCTAGTGCAG”, the binding signal was 9070 fluorescence intensity (a.u.).

As to “TTGCCGCGGGTTTGCTCCAAAATTTTGTGTTCGTACGCTTCGGAGTCACCTAGTGCAG”, the binding signal is 13600 fluorescence intensity (a.u.).

On to “TTTGGTTTACAGTCTACATTTGCTCAACATCCATCTTTCTCGGAGTCACCTAGTGCAG”, for which the binding signal is 9600 fluorescence intensity (a.u.).

“TTGCAGTGTTGATCGAGTCGTGGGAGTGCGTGGTGTGCGTCGGAGTCACCTAGTGCAG”: the binding signal is 8800 fluorescence intensity (a.u.).

For “TATATATATATATATATATATATATATATATAAGGTTTGACGGAGTCACCTAGTGCAG”, the binding signal is 17300 fluorescence intensity (a.u.).

Regarding “CATCGTTTTACGTGAAACACTTTTAGTTTGCATTCATCTTCGGAGTCACCTAGTGCAG”, the binding signal is 9600 fluorescence intensity (a.u.).

For the sequence “TGTAGTGTTACATCACATATTAATACATCTTCTTAATTTTCGGAGTCACCTAGTGCAG”, the binding signal was 8570 fluorescence intensity (a.u.).

Consider “AATCGAATTAATTACTGCTCCGGTCAAACTTAAGCACGCACGGAGTCACCTAGTGCAG”, for which the binding signal is 8420 fluorescence intensity (a.u.).

For the sequence “ATAAAGCAGTGATGAATATTCAGAGTTTTTTGCCCTCTAACGGAGTCACCTAGTGCAG”, the binding signal is 8170 fluorescence intensity (a.u.).

“AATTACACTACGATTATATTATAATTACATTTGTCAAATTCGGAGTCACCTAGTGCAG”: the binding signal was 9220 fluorescence intensity (a.u.).

For the sequence “GTAGCTCACTTTTTTCTCTCGCTCCTTCACCTAAGCACAACGGAGTCACCTAGTGCAG”, the binding signal is 12600 fluorescence intensity (a.u.).

As to “GGCCTCGTCTACCCATCCGGCCCAGTCAATGTCGCAGGGGCGGAGTCACCTAGTGCAG”, the binding signal was 10100 fluorescence intensity (a.u.).

Turning to “GCTCGGTGCAGCTAGGTGTGTCTTGGTTGGTGATCCACAACGGAGTCACCTAGTGCAG”, the binding signal is 8290 fluorescence intensity (a.u.).

Consider “TGCCCAATTGCTCACCGAAACAGCAGCAGTCACAACCTGTCGGAGTCACCTAGTGCAG”, for which the binding signal is 8360 fluorescence intensity (a.u.).

Consider “ATAAGCATCAAACTTTACAGTTCTTTGTTGTATCATGTATCGGAGTCACCTAGTGCAG”, for which the binding signal was 9060 fluorescence intensity (a.u.).

On to “TGTATAGTTTGTTCAGTCCCTACTATTAGTTCTTCTTGGACGGAGTCACCTAGTGCAG”, for which the binding signal was 8490 fluorescence intensity (a.u.).

On to “TTCCAACCCCACATTTCATCCTCGATCTTTCTGGTTTGCCCGGAGTCACCTAGTGCAG”, for which the binding signal was 8700 fluorescence intensity (a.u.).

For “ATCGGCTTTCACCCTTACACCGTTACACGTTGCACTGCACCGGAGTCACCTAGTGCAG”, the binding signal was 8192 fluorescence intensity (a.u.).

As for “ACGTATTTTGTTCATTATATAGTTTTGTTTTCAGTTTTTCCGGAGTCACCTAGTGCAG”, the binding signal was 14400 fluorescence intensity (a.u.).

Consider “CATTTCATCATCCGGAAGCAAATCTGTGGCGATAACCTGTCGGAGTCACCTAGTGCAG”, for which the binding signal was 8080 fluorescence intensity (a.u.).

In the case of “TGGGTTGCTGCATTGTTGATATTTTAACTACTTTATAAACCGGAGTCACCTAGTGCAG”, the binding signal is 8490 fluorescence intensity (a.u.).

Take “TCCTCTCATCCTATTTTCTGTGTGCATTGTGTCTGTGACACGGAGTCACCTAGTGCAG”: the binding signal was 9240 fluorescence intensity (a.u.).
